# Test results as given in article doi:10.1101/077586.
# By UniProt entry, the sequences of proteins in these tests, tags left out.
# UniProt P46096: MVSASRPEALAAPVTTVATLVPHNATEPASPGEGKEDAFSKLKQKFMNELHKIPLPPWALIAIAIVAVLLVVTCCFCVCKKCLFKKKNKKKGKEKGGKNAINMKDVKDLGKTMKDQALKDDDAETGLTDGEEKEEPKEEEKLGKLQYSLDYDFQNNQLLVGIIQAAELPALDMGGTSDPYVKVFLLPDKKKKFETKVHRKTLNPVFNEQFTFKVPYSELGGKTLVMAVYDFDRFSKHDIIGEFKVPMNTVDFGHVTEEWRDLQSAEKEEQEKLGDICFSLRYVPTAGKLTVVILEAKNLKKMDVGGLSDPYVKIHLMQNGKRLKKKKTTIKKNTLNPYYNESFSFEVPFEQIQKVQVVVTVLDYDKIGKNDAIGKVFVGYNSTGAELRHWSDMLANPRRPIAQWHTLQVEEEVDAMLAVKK
# UniProt P24529: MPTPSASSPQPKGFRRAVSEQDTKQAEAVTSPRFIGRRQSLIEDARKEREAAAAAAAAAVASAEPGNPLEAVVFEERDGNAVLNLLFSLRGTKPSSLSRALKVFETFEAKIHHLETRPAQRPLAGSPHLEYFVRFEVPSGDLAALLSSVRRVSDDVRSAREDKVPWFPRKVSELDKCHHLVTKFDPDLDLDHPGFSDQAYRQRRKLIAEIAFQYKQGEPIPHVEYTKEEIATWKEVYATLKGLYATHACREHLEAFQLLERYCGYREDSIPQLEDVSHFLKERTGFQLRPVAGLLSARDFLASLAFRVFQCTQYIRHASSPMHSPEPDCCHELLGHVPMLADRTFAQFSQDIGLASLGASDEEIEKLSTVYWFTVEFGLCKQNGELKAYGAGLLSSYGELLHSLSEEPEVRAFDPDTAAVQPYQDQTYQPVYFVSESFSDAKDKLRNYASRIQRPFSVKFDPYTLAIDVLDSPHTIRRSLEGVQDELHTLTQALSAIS
# UniProt Q61327: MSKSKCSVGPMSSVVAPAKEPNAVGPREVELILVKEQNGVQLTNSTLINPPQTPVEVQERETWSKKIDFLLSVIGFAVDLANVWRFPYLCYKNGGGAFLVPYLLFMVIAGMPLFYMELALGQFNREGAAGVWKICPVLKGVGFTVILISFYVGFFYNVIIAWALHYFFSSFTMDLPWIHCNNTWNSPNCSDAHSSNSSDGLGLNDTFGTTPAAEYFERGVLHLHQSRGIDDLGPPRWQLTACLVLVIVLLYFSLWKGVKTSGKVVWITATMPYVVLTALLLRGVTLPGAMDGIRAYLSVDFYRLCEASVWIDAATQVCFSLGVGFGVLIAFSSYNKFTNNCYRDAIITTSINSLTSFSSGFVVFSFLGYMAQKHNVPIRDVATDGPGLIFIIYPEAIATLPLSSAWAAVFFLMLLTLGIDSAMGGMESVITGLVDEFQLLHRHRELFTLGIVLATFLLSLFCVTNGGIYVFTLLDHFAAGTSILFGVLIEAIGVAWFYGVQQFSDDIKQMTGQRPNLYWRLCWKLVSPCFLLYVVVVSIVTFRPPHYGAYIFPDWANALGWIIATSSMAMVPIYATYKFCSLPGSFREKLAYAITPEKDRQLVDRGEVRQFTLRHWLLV
# Results are given in words; binding and its absence hold for the method and conditions named. In cells and extracts the contact can be indirect. Some entries that bind do so weakly or less than the wild type.
# Molecular target: T1, synaptic vesicle glycoprotein 2C (mouse (endogenous in striatum of WT C57BL/6 mice)) (UniProt Q69ZS6)
# T1 sequence: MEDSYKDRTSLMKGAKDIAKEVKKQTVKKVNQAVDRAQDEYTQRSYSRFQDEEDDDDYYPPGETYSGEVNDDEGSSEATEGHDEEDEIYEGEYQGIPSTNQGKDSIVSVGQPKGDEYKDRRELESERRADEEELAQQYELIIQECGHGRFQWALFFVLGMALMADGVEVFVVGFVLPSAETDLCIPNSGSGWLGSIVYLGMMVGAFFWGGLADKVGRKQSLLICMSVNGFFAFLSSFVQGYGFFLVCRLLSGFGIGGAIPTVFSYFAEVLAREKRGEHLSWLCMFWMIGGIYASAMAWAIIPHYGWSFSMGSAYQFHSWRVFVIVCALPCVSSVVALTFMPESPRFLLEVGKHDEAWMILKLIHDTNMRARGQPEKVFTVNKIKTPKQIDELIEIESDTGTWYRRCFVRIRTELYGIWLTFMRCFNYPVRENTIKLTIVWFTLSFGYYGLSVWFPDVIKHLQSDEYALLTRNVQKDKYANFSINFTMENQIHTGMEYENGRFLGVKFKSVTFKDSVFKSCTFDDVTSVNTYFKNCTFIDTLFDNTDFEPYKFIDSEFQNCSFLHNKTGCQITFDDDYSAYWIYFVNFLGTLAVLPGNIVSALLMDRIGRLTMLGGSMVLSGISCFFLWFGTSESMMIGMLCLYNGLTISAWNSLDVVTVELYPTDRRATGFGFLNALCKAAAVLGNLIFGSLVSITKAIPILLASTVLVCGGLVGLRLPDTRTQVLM
# Test: co-IP
row,Substance,binding
1,Synaptotagmin-1 (from UniProt P46096 1-421),binds
2,tyrosine hydroxylase (from UniProt P24529 1-498) (enzyme),no binding
3,dopamine transporter (from UniProt Q61327 1-619),no binding
